Structures can show the parent of a compound that is named as a salt. The list shows a part of the results. The calls rarely recur for the same compound in another form.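 In K562 cells expressing nanoluciferase-fused kinases, luminescence was recorded at 4 h intervals between 2 and 18 h, normalized as percent of control with DMSO at 100% and a positive control at 0%. A significant (2 sigma) signal drop marks a time point as decreased. The authors' rule for a hit is not shown and takes in more than the number of time points.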
What was measured:
Assay in all cases: number of time points (of 5) at which kinase-Nluc abundance scored as decreased, DMSO-normalised (count); higher = more persistent destabilization
Details in all cases: K562; 2-18 h
[1] = target: CSNK1A1 (UniProt P48729)
[2] = target: CSNK1D (UniProt P48730)
[3] = target: DDR1 (UniProt Q08345)
[4] = target: DYRK1B (UniProt Q9Y463)
[5] = target: DYRK2 (UniProt Q92630)
[6] = target: EGFR (UniProt P00533)
[7] = target: EGFR_G719S (UniProt P00533)
[8] = target: EGFR_G719S_T790M (UniProt P00533)
[9] = target: EGFR_L718V (UniProt P00533)
[10] = target: EGFR_L858R (UniProt P00533)
[11] = target: EGFR_L861Q (UniProt P00533)
[12] = target: EGFR_T790M (UniProt P00533)
[13] = target: EPHA2 (UniProt P29317)
[14] = target: ERBB3 (UniProt P21860)
[15] = target: ERBB4_R711C (clone: ERBB4_mut) (UniProt Q15303)
[16] = target: ERN1 (UniProt O75460)
[17] = target: FGFR1 (UniProt P11362)
[18] = target: FGFR2 (UniProt P21802)
[19] = target: FGFR3 (UniProt P22607)
[20] = target: FGR (UniProt P09769)

By UniProt entry, the sequences of proteins in these tests, tags left out. Where a name states a change or a piece, a line headed by the entry shows the natural chain unless it says otherwise.
UniProt P48730: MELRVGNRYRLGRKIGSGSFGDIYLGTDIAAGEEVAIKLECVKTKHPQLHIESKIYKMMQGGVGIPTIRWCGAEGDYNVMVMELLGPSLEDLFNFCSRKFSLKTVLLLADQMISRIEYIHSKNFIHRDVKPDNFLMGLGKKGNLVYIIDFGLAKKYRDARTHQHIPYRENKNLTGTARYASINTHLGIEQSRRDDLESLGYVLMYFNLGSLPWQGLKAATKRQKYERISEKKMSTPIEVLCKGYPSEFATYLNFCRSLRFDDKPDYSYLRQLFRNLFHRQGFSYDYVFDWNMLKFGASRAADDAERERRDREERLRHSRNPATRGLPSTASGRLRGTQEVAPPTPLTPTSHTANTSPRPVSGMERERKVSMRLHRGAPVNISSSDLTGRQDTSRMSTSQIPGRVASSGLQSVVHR
UniProt Q08345: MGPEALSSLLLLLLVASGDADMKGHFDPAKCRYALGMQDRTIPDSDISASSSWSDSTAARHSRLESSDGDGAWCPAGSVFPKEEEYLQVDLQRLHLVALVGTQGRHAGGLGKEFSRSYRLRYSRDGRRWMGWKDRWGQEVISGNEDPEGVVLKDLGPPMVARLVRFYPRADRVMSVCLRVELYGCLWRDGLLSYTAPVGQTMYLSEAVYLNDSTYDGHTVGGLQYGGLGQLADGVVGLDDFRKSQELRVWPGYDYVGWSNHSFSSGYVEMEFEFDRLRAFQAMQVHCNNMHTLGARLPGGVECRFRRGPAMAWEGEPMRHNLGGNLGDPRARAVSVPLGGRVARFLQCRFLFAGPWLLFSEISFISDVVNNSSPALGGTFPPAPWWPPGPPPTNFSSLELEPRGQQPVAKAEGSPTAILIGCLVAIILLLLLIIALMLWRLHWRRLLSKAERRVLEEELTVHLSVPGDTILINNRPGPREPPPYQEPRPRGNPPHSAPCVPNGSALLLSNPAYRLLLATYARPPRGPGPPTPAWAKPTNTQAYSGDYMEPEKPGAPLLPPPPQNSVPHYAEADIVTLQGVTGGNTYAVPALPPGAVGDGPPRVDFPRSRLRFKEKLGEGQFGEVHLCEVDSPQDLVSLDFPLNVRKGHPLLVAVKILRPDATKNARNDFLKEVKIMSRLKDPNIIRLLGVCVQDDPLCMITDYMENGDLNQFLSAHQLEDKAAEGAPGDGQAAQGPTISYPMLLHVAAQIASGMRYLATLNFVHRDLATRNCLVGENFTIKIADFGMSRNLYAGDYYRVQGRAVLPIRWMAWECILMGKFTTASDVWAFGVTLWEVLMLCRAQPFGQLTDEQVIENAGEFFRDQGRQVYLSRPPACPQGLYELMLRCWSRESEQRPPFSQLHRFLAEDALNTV
UniProt Q92630: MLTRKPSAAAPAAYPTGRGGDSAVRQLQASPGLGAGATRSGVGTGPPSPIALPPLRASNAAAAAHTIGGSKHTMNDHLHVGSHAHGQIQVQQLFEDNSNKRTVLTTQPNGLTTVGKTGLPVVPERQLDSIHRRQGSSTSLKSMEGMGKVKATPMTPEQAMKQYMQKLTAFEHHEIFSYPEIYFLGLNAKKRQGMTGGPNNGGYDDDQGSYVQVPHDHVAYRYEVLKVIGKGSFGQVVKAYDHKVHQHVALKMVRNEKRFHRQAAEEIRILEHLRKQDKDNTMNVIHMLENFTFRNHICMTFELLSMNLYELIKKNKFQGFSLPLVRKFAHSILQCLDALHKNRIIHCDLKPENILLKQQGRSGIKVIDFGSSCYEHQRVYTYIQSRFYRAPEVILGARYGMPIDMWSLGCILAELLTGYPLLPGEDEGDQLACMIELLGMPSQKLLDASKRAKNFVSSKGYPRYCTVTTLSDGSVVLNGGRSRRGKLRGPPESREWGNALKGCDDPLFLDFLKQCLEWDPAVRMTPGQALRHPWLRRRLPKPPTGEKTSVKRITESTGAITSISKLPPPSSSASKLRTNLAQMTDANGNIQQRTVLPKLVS
UniProt P29317, whole entry: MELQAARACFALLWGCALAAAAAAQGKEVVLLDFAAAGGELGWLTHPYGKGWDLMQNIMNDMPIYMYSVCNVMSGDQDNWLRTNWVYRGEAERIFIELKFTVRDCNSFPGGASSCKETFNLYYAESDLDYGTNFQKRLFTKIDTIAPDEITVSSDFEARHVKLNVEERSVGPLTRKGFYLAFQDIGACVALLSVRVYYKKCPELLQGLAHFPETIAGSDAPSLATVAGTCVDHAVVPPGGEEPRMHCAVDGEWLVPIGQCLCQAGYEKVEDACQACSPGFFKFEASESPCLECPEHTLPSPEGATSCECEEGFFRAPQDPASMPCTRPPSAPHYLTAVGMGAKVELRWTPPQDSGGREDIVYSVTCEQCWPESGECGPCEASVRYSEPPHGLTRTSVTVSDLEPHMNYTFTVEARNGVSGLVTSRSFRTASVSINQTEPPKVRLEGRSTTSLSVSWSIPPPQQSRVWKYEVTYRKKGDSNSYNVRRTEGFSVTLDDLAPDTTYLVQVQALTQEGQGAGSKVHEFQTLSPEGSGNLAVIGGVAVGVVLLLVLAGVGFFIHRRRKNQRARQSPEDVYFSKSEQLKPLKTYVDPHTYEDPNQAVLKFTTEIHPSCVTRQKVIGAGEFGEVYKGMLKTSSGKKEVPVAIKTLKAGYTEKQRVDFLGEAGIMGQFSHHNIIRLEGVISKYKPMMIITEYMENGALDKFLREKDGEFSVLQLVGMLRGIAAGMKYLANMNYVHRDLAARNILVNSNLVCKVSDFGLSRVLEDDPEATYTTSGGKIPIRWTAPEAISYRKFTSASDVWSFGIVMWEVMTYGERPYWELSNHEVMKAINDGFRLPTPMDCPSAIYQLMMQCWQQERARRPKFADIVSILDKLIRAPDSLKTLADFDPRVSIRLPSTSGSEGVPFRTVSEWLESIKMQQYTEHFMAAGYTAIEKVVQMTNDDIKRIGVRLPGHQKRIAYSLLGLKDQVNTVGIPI
UniProt P21860, whole entry: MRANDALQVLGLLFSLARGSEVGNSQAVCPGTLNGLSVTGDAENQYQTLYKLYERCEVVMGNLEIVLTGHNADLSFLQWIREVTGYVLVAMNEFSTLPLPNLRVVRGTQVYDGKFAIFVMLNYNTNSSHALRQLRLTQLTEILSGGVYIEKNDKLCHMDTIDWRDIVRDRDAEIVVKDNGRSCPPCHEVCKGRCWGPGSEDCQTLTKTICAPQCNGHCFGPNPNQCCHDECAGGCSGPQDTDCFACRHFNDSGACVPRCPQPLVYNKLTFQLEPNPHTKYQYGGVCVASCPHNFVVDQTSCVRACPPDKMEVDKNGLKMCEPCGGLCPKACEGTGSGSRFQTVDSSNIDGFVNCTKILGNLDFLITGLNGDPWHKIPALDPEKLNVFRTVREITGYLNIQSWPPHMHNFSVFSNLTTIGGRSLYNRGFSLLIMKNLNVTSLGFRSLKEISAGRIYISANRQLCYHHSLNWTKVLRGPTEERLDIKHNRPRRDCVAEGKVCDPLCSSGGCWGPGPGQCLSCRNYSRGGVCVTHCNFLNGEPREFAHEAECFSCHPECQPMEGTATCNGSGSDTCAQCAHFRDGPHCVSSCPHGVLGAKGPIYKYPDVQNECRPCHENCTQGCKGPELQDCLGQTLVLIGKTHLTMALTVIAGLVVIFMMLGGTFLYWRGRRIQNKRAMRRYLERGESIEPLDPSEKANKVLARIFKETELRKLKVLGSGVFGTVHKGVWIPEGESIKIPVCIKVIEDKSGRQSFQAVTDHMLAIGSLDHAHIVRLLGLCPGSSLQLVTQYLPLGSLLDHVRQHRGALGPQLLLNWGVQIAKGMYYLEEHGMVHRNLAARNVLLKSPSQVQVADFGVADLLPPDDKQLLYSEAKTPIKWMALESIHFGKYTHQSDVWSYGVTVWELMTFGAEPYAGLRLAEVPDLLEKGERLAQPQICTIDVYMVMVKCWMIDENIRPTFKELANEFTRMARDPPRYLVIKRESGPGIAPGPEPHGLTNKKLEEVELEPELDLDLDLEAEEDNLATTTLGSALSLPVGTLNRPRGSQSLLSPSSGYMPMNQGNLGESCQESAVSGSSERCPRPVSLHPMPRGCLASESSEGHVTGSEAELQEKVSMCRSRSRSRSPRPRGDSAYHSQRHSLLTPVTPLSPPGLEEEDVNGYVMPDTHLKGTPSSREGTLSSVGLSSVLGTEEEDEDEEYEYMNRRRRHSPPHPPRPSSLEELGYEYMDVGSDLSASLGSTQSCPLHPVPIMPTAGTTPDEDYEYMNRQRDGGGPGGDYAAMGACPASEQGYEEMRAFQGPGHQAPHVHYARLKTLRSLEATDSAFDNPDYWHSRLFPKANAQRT
UniProt Q15303, whole entry R711C: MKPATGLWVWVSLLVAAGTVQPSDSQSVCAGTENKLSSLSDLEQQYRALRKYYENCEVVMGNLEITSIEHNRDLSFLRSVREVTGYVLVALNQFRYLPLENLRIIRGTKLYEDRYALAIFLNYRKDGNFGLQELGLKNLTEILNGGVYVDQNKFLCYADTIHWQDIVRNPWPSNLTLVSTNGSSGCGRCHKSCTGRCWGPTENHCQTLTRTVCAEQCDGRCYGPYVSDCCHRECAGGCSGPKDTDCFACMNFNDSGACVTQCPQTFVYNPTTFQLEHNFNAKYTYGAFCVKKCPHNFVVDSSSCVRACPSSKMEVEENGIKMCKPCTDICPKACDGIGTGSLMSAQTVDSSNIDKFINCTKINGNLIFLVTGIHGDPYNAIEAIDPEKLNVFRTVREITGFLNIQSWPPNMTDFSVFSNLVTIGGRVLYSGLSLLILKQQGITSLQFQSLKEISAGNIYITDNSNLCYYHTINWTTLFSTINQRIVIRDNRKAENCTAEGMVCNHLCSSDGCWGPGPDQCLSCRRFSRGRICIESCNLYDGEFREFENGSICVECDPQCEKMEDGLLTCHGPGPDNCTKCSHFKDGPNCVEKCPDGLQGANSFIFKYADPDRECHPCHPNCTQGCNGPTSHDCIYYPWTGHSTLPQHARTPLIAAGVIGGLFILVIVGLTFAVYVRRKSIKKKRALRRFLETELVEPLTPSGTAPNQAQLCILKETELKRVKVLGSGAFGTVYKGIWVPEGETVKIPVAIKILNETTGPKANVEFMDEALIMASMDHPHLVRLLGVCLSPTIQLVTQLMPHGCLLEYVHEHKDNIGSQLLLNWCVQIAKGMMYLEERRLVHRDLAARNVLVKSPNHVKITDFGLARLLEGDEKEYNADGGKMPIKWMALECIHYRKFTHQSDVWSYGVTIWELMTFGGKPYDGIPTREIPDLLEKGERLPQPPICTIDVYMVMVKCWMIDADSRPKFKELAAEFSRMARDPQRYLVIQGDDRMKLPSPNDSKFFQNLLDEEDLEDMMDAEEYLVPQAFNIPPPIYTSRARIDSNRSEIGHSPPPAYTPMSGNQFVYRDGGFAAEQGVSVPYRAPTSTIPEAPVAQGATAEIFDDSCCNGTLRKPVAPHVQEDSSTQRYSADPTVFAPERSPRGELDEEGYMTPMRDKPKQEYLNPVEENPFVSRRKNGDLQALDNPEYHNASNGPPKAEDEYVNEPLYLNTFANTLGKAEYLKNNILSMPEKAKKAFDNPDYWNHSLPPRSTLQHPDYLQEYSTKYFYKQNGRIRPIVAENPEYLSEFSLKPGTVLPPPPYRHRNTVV
UniProt P11362, whole entry, looked up: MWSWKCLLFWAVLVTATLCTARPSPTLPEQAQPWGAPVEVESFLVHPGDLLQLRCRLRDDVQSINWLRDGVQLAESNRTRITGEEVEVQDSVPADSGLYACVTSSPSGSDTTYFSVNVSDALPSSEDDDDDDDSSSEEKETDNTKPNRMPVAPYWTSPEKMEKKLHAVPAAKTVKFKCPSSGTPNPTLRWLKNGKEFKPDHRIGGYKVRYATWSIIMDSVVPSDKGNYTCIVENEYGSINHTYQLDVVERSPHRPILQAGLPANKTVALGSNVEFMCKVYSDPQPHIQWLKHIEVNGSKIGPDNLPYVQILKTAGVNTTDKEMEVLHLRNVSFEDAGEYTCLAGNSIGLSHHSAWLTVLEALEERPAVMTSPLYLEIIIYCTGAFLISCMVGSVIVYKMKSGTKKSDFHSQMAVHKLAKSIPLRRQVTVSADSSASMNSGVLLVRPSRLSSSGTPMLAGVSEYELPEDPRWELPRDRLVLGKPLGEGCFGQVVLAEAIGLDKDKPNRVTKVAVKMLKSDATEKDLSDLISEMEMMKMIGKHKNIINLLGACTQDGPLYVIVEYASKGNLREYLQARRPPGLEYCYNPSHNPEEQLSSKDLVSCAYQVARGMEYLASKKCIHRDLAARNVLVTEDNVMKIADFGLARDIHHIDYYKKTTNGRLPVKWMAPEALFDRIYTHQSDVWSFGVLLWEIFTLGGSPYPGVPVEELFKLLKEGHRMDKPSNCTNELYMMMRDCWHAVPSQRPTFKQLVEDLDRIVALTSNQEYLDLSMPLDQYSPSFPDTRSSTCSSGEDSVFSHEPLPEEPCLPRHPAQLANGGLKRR

SMILES | number of time points [1] | number of time points [2] | number of time points [3] | number of time points [4] | number of time points [5] | number of time points [6] | number of time points [7] | number of time points [8] | number of time points [9] | number of time points [10] | number of time points [11] | number of time points [12] | number of time points [13] | number of time points [14] | number of time points [15] | number of time points [16] | number of time points [17] | number of time points [18] | number of time points [19] | number of time points [20]
CC[C@H](C)[C@H](NC(=O)[C@H](CCCCN)NC(=O)[C@H](CC(C)C)NC(=O)[C@@H]1CCCN1C(=O)[C@H](CCC(=O)O)NC(=O)[C@H](Cc1ccc(O)cc1)NC(=O)[C@@H](NC(=O)[C@H](CO)NC(=O)CNC(=O)[C@H](CO)NC(=O)[C@H](CCCN=C(N)N)NC(=O)[C@H](CCCCN)NC(=O)[C@@H](NC(=O)[C@@H](N)CCCN=C(N)N)[C@@H](C)O)C(C)C)C(=O)O [Malantide] (10 µM) | 0 | 0 | 0 | 0 | 0 | 0 | 0 | 0 | 0 | 0 | 0 | 0 | 0 | 0 | 0 | 0 | 0 | 0 | 0 | 0
C[C@@H]1O[C@@H](O[C@H]2[C@H](OC(=O)[C@]34CCC(C)(C)C[C@H]3C3=CC[C@@H]5[C@@]6(C)C[C@H](O)[C@H](O[C@@H]7O[C@H](CO)[C@@H](O)[C@H](O)[C@H]7O)C(CO)(CO)[C@@H]6CC[C@@]5(C)[C@]3(C)C[C@H]4O)OC[C@H](O)[C@@H]2O)[C@H](O)[C@H](O)[C@H]1O[C@@H]1OC[C@@H](O)[C@H](O[C@@H]2OC[C@](O)(CO)[C@H]2O)[C@H]1O [Platycodin D] (10 µM) | 0 | 0 | 0 | 0 | 0 | 0 | 0 | 0 | 0 | 0 | 0 | 0 | 0 | 0 | 0 | 0 | 0 | 0 | 0 | 0
CC(C)Cn1cc(C#N)c2cc(Oc3ccc(NC(=O)[C@@H]4CCCN4)cc3)ccc21 (10 µM) | 0 | 0 | 0 | 0 | 0 | 0 | 0 | 0 | 0 | 0 | 0 | 0 | 0 | 0 | 0 | 0 | 0 | 0 | 0 | 0
CC(=O)Nc1nc(C)c(-c2cc3c(c(S(C)(=O)=O)c2)C(=O)N([C@@H](C)C2CC2)C3)s1 (2.5 µM) | 0 | 0 | 0 | 0 | 0 | 0 | 0 | 0 | 0 | 0 | 0 | 0 | 0 | 0 | 0 | 0 | 0 | 0 | 0 | 0
COc1c(OCCCN2CCOCC2)ccc2c3n(c(=NC(=O)c4cnc(N)nc4)nc12)CCN3 [Copanlisib (dihydrochloride)] (10 µM) | 3 | 3 | 4 | 2 | 4 | 2 | 2 | 2 | 2 | 2 | 3 | 1 | 0 | 3 | 4 | 0 | 2 | 3 | 4 | 0
CC(=O)Nc1nc(C)c(-c2ccc(Cl)c(S(=O)(=O)NCCO)c2)s1 (10 µM) | 0 | 0 | 2 | 0 | 3 | 0 | 0 | 2 | 0 | 0 | 0 | 0 | 0 | 0 | 3 | 0 | 0 | 0 | 0 | 0
COC(=O)c1cc2c(OC(C)C)cc(OC(C)C)cc2[nH]1 (2.5 µM) | 0 | 0 | 0 | 0 | 0 | 0 | 0 | 0 | 0 | 0 | 0 | 0 | 0 | 0 | 0 | 0 | 0 | 0 | 0 | 0
CCOc1cc(C(=O)N2CCC(N3CCN(C)CC3)CC2)ccc1Nc1ncc2c(n1)N(S(C)(=O)=O)c1ccccc1C(=O)N2C (10 µM) | 0 | 0 | 0 | 0 | 0 | 0 | 0 | 0 | 0 | 0 | 0 | 0 | 0 | 0 | 0 | 0 | 0 | 0 | 0 | 0
Cc1ccc(Nc2c(C(N)=O)cnc3cc(-c4ccncc4)ccc23)cc1C [cFMS Receptor Inhibitor II] (10 µM) | 0 | 0 | 0 | 0 | 0 | 0 | 0 | 0 | 0 | 0 | 0 | 0 | 0 | 0 | 0 | 0 | 0 | 0 | 0 | 0
C=CC(=O)N[C@H]1CCOC[C@H]1Nc1ncc2cc(-c3c(Cl)c(OC)cc(OC)c3Cl)ccc2n1 [Fisogatinib] (10 µM) | 0 | 0 | 0 | 0 | 0 | 0 | 0 | 0 | 0 | 0 | 0 | 0 | 0 | 0 | 0 | 0 | 0 | 0 | 0 | 0
CC(C)=CCC/C(C)=C/CC/C(C)=C/CSc1ccccc1C(=O)O [Salirasib] (10 µM) | 0 | 0 | 0 | 0 | 0 | 0 | 0 | 0 | 0 | 0 | 0 | 0 | 0 | 0 | 0 | 0 | 0 | 0 | 0 | 0
Cc1cc(F)c(Nc2ncnc3cc(OCc4ccccc4)ccc23)cc1O (10 µM) | 0 | 0 | 0 | 0 | 0 | 0 | 0 | 0 | 0 | 0 | 0 | 0 | 0 | 0 | 0 | 0 | 0 | 0 | 0 | 0
CC(C)[C@H](CO)Nc1nc(Nc2ccc(C(=O)O)c(Cl)c2)c2ncn(C(C)C)c2n1 [Purvalanol B] (10 µM) | 0 | 0 | 0 | 0 | 0 | 0 | 0 | 0 | 0 | 0 | 0 | 0 | 0 | 0 | 0 | 0 | 0 | 0 | 0 | 0
C[C@@H](N)COc1ccc(-c2cnc3ccc(N[C@H](C)c4cccc(F)c4)nn23)cc1 [Taletrectinib] (2.5 µM) | 0 | 0 | 0 | 0 | 0 | 0 | 0 | 0 | 0 | 0 | 0 | 0 | 0 | 0 | 0 | 0 | 0 | 0 | 0 | 0
O=C(Nc1nc2cccc(-c3ccc(CN4CCS(=O)(=O)CC4)cc3)n2n1)C1CC1 [Filgotinib] (2.5 µM) | 0 | 0 | 0 | 0 | 0 | 0 | 0 | 0 | 0 | 0 | 0 | 0 | 0 | 0 | 0 | 0 | 0 | 0 | 0 | 0
CNC(=O)Nc1cc(Oc2cncc(C)c2)c(-c2ccc(OCC(C)(C)O)nc2)cn1 (2.5 µM) | 0 | 0 | 0 | 0 | 0 | 0 | 0 | 0 | 0 | 0 | 0 | 0 | 0 | 0 | 0 | 0 | 1 | 0 | 0 | 0
C[C@@H](Nc1cc(F)cc(F)c1)c1cc(C(=O)N(C)C)cc2c(=O)cc(N3CCOCC3)oc12 (10 µM) | 0 | 0 | 0 | 0 | 0 | 0 | 0 | 0 | 0 | 0 | 0 | 0 | 0 | 0 | 0 | 0 | 0 | 1 | 0 | 0
O=c1cc(N2CCOCC2)oc2c1ccc1ccccc12 (2 µM) | 0 | 0 | 0 | 0 | 0 | 0 | 0 | 0 | 0 | 0 | 0 | 0 | 0 | 0 | 0 | 0 | 0 | 0 | 0 | 0
CC(C)n1cnnc1-c1cccc(NC(=O)c2cc3ccc(F)cc3[nH]2)n1 (2.5 µM) | 1 | 3 | 3 | 0 | 4 | 0 | 3 | 3 | 1 | 3 | 4 | 1 | 0 | 3 | 3 | 1 | 3 | 3 | 3 | 0
N#Cc1cn([C@@H]2O[C@H](CO)[C@@H](O)[C@H]2O)c2nc[nH]c(=O)c12 [Jaspamycin] (10 µM) | 0 | 0 | 0 | 0 | 0 | 0 | 0 | 0 | 0 | 0 | 0 | 0 | 0 | 0 | 0 | 0 | 0 | 0 | 0 | 0
Clc1ccc(Nc2cccc(-c3cn[nH]c3)c2)cc1 (10 µM) | 0 | 0 | 0 | 0 | 0 | 0 | 0 | 0 | 0 | 0 | 0 | 0 | 0 | 0 | 0 | 0 | 0 | 0 | 0 | 0
C=C[C@H]1[C@H](O[C@@H]2O[C@H](CO)[C@@H](O)[C@H](O)[C@H]2O)OC=C(C(=O)OC)[C@H]1CCOC(=O)c1cc(O)c(O)c(O)c1 [Cornuside] (10 µM) | 0 | 0 | 0 | 0 | 0 | 0 | 0 | 0 | 0 | 0 | 0 | 0 | 0 | 0 | 0 | 0 | 0 | 0 | 0 | 0
NC(=O)c1nc(-c2c(F)cccc2Cl)oc1Nc1ccc(C(=O)N2CCOCC2)cc1 (10 µM) | 0 | 0 | 0 | 0 | 0 | 0 | 0 | 0 | 0 | 0 | 0 | 0 | 0 | 0 | 2 | 0 | 0 | 0 | 0 | 0

In the list so far, these contain an aryl methoxy group.
SMILES | number of time points [1] | number of time points [2] | number of time points [3] | number of time points [4] | number of time points [5] | number of time points [6] | number of time points [7] | number of time points [8] | number of time points [9] | number of time points [10] | number of time points [11] | number of time points [12] | number of time points [13] | number of time points [14] | number of time points [15] | number of time points [16] | number of time points [17] | number of time points [18] | number of time points [19] | number of time points [20]
COc1c(OCCCN2CCOCC2)ccc2c3n(c(=NC(=O)c4cnc(N)nc4)nc12)CCN3 [Copanlisib (dihydrochloride)] (10 µM) | 3 | 3 | 4 | 2 | 4 | 2 | 2 | 2 | 2 | 2 | 3 | 1 | 0 | 3 | 4 | 0 | 2 | 3 | 4 | 0
C=CC(=O)N[C@H]1CCOC[C@H]1Nc1ncc2cc(-c3c(Cl)c(OC)cc(OC)c3Cl)ccc2n1 [Fisogatinib] (10 µM) | 0 | 0 | 0 | 0 | 0 | 0 | 0 | 0 | 0 | 0 | 0 | 0 | 0 | 0 | 0 | 0 | 0 | 0 | 0 | 0
